Experimental data published in article PMC7465815, “The CARF Protein MM_0565 Affects Transcription of the Casposon-Encoded cas1-solo Gene in Methanosarcina mazei Gö1” (Biomolecules, 2020).
For at least one entry, the source does not settle the construct or the ends of the probe. Weaker means in comparison with the reference protein, sequence or condition of that experiment. Protein sequences can lack the tags named with them.

Biological target: T1, His6-MM_0565 (CARF-wHTH protein) (Methanosarcina mazei Gö1) (UniProt Q8PZC9)
T1 sequence (looked up, limits assumed): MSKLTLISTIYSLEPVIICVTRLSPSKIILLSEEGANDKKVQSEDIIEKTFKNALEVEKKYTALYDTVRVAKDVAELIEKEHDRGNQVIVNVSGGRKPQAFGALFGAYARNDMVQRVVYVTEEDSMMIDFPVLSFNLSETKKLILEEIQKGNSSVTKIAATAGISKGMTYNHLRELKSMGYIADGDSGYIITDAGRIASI
Assay: MST
Settings: MST: 25 nM labelled protein in His-tag buffer (250 mM NaH2PO4, 1.5 M NaCl, pH 8) + 1 mg/mL BSA, 0.05% Tween20, DNA from annealing buffer; recombinant protein; protein details: N-terminal His6 (pET28a)

Binding result, binds more weakly:
AGCAAATAGAACCAAACATCAAACATTTAACCAAACCCTACAATACATGACATCTAATGT (double strand) [MM_0565 promoter version 2], AGCAAATAGAACCAAACATCAACTAAATCCCTATATCGTAAAACATTTAACCAAACCCTA (double strand) [MM_0565 promoter version 4], AGCAAATAGAACCAAACATCAACTAAATCCCTATATCGTACAATACATGACATCTAATGT (double strand) [MM_0565 promoter version 3]
